Assay results taken from PMC12646662.

Sequences of proteins named here, by UniProt entry; tags and fusion partners are left off. Residues count along the entry.
UniProt P20930: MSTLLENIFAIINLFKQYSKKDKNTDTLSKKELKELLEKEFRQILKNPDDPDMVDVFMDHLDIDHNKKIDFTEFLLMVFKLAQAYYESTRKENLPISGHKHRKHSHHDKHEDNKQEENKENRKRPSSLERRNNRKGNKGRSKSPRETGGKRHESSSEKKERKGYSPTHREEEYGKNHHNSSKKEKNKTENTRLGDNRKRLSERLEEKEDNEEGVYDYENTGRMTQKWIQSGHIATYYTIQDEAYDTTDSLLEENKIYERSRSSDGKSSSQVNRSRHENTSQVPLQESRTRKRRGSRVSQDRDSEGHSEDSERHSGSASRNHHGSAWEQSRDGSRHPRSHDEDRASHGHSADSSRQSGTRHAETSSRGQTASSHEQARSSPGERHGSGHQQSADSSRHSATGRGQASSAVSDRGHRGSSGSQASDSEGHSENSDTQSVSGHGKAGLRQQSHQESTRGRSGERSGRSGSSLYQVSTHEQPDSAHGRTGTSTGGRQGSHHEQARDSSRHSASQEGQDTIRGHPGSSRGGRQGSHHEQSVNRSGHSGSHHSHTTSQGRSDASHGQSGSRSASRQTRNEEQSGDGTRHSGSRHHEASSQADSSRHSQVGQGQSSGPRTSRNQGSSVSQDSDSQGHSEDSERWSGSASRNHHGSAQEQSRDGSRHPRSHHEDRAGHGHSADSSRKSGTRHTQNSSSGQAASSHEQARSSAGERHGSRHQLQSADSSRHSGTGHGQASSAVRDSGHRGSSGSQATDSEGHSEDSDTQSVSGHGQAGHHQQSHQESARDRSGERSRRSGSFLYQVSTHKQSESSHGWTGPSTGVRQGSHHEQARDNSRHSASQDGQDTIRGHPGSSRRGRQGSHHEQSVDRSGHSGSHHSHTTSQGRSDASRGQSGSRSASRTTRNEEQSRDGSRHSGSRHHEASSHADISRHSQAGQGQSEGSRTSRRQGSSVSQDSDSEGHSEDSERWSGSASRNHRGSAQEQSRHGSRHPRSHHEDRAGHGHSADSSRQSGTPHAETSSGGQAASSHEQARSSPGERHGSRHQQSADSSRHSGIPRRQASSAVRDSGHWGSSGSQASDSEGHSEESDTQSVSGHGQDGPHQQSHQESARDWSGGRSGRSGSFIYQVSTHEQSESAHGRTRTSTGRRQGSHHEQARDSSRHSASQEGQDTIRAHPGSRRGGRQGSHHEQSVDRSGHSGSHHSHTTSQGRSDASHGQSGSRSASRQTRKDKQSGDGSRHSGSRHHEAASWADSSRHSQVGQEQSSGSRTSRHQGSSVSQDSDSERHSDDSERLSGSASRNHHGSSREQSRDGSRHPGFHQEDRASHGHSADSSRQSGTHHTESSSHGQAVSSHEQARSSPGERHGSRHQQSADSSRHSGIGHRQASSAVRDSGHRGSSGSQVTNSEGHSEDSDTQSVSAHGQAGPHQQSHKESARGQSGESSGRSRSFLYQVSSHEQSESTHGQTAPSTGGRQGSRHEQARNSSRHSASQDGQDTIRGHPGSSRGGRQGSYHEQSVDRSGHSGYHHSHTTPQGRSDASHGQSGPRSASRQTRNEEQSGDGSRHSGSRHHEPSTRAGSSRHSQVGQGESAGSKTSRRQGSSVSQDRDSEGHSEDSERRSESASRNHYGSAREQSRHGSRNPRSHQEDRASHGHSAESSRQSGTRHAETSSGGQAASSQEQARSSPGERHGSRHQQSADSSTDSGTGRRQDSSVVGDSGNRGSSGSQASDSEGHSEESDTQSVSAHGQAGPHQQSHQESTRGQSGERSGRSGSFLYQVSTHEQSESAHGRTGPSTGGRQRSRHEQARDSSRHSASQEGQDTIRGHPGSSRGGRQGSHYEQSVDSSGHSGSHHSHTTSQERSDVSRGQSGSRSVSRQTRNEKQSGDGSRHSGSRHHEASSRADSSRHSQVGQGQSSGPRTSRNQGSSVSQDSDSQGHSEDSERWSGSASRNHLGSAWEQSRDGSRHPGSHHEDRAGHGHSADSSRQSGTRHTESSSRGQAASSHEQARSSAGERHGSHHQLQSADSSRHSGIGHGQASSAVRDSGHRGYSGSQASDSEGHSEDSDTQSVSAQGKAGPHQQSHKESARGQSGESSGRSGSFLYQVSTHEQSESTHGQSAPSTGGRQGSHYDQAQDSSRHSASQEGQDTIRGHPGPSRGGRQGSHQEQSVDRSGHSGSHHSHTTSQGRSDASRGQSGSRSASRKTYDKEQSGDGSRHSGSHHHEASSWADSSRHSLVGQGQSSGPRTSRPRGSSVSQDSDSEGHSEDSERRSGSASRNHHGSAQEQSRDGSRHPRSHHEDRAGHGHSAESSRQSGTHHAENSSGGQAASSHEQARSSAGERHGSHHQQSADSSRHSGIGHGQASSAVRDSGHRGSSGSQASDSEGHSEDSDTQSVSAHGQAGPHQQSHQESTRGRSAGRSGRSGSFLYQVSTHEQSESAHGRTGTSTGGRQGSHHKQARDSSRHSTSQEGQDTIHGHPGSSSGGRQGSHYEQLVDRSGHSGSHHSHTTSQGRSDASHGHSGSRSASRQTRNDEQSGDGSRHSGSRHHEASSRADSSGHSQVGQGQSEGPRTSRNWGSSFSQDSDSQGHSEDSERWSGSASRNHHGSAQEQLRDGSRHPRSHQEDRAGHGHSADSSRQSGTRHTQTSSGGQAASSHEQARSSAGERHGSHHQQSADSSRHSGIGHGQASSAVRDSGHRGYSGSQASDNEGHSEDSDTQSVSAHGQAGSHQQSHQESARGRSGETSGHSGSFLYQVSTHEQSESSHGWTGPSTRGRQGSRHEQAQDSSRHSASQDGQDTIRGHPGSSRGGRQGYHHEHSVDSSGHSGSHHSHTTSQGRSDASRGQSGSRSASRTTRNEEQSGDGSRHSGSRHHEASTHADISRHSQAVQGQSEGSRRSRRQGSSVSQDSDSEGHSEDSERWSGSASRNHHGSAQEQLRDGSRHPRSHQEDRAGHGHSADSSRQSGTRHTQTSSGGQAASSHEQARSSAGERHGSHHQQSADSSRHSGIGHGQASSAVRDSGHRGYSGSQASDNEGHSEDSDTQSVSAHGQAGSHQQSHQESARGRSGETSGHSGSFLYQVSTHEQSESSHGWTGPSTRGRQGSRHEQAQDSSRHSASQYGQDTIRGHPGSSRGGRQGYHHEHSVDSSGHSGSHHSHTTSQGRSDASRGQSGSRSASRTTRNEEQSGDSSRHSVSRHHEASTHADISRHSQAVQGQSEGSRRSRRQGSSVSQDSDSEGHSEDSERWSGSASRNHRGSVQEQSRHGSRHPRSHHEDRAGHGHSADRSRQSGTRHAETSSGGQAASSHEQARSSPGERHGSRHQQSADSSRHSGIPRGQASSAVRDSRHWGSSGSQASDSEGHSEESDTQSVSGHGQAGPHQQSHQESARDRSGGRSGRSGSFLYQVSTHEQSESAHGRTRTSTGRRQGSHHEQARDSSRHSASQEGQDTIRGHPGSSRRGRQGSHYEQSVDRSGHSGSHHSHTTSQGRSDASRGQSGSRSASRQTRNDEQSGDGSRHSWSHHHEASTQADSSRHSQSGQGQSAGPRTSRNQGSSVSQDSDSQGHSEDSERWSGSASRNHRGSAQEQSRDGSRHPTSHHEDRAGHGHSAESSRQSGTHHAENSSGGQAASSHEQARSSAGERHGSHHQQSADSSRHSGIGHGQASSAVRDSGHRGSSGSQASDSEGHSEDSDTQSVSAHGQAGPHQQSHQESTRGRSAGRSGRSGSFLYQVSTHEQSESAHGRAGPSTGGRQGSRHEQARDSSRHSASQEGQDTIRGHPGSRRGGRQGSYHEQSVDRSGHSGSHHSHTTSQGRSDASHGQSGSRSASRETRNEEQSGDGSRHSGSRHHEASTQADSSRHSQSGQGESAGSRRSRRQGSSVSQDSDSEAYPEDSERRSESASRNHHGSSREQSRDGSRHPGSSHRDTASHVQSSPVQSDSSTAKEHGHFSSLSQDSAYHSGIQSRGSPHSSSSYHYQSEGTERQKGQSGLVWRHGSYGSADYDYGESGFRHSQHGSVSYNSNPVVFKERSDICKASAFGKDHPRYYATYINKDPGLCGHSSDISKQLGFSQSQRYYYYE
UniProt P31040, residues 43-664: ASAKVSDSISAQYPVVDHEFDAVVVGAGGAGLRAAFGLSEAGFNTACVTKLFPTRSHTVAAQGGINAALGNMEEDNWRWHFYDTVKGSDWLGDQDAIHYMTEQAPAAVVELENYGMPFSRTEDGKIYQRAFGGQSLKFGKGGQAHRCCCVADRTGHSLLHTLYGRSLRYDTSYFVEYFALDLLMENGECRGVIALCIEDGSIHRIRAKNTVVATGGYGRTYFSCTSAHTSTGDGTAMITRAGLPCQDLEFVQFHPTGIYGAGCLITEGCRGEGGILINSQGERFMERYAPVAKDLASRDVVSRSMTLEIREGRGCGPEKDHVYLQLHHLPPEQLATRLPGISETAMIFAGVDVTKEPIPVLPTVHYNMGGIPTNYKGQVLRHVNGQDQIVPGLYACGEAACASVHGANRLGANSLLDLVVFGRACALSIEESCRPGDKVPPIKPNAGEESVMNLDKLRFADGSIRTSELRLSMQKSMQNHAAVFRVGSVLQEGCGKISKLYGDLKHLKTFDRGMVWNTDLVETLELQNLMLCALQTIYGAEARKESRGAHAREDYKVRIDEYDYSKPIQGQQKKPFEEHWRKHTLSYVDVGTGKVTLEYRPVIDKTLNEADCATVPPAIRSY

Key:
[1] = target: T1, Flag-CTNND1 C618S, stably expressed in SK-Mel-28 cells (UniProt O60716); experiment: affinity purification with mass spectrometry; Flag-CTNND1 complexes from SK-Mel-28 cells expressing WT or C618S CTNND1
T1 sequence: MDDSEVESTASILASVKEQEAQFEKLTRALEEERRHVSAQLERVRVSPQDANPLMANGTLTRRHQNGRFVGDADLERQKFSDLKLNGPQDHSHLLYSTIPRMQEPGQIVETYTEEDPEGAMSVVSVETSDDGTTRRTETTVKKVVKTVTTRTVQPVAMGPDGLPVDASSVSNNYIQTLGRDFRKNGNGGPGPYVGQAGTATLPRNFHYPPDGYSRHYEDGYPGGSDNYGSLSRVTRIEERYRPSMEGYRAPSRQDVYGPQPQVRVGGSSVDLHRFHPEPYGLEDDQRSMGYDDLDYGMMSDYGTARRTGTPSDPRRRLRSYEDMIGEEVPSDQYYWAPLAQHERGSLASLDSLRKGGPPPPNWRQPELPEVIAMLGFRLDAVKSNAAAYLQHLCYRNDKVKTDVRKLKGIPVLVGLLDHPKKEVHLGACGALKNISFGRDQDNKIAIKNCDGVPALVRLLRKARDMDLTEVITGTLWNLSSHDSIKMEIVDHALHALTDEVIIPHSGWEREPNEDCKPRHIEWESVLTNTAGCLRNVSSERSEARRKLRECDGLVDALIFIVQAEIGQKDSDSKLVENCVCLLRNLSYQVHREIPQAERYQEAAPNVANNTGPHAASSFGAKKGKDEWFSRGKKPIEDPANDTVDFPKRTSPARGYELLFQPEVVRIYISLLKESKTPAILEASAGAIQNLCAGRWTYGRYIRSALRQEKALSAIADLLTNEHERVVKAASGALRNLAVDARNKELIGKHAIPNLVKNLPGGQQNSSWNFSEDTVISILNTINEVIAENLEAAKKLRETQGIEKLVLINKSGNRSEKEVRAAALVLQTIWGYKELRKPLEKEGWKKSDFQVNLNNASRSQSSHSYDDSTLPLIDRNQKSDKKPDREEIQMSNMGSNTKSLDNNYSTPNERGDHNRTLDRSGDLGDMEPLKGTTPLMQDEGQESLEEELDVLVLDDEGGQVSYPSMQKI

[2] = target: T2, ZDHHC13, bait of the IP with mass spectrometry in melanoma cells (UniProt Q8IUH4); experiment: affinity purification with mass spectrometry; IP of ZDHHC13 followed by mass spectrometry in melanoma cells
T2 sequence: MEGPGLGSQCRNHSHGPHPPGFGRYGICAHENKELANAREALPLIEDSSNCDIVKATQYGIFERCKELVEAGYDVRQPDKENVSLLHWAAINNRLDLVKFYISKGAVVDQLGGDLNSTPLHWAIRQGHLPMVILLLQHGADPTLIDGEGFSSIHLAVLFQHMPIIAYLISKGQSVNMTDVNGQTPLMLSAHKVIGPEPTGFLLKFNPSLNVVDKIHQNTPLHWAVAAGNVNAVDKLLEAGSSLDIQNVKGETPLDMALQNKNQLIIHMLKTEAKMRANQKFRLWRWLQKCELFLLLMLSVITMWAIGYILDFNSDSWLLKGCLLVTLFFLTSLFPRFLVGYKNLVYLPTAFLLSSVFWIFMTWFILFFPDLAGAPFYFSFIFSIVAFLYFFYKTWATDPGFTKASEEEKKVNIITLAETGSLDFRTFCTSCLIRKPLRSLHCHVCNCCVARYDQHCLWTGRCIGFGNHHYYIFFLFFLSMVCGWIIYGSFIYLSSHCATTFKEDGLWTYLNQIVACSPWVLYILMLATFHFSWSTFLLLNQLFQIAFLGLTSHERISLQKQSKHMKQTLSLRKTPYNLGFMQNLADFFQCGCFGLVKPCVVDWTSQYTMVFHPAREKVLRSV

Molecule: filaggrin (FLG) (from UniProt P20930 1-4061)
binding [1]: binds

B1: plakophilin-1 (PKP1) (protein, UniProt Q13835 1-747)
chain: MNHSPLKTALAYECFQDQDNSTLALPSDQKMKTGTSGRQRVQEQVMMTVKRQKSKSSQSSTLSHSNRGSMYDGLADNYNYGTTSRSSYYSKFQAGNGSWGYPIYNGTLKREPDNRRFSSYSQMENWSRHYPRGSCNTTGAGSDICFMQKIKASRSEPDLYCDPRGTLRKGTLGSKGQKTTQNRYSFYSTCSGQKAIKKCPVRPPSCASKQDPVYIPPISCNKDLSFGHSRASSKICSEDIECSGLTIPKAVQYLSSQDEKYQAIGAYYIQHTCFQDESAKQQVYQLGGICKLVDLLRSPNQNVQQAAAGALRNLVFRSTTNKLETRRQNGIREAVSLLRRTGNAEIQKQLTGLLWNLSSTDELKEELIADALPVLADRVIIPFSGWCDGNSNMSREVVDPEVFFNATGCLRKRLGMRELLALVPQRATSSRVNLSSADAGRQTMRNYSGLIDSLMAYVQNCVAASRCDDKSVENCMCVLHNLSYRLDAEVPTRYRQLEYNARNAYTEKSSTGCFSNKSDKMMNNNYDCPLPEEETNPKGSGWLYHSDAIRTYLNLMGKSKKDATLEACAGALQNLTASKGLMSSGMSQLIGLKEKGLPQIARLLQSGNSDVVRSGASLLSNMSRHPLLHRVMGNQVFPEVTRLLTSHTGNTSNSEDILSSACYTVRNLMASQPQLAKQYFSSSMLNNIINLCRSSASPKAAEAARLLLSDMWSSKELQGVLRQQGFDRNMLGTLAGANSLRNFTSRF
binding [1]: binds

Now from value to molecule:

binding [2]: binds
Molecule: succinate dehydrogenase subunit A (SDHA) (from UniProt P31040 43-664) (enzyme)

binding [1]: binds
B2: transglutaminase 1 (TGM1) (protein, UniProt P22735 1-817)
chain: MMDGPRSDVGRWGGNPLQPPTTPSPEPEPEPDGRSRRGGGRSFWARCCGCCSCRNAADDDWGPEPSDSRGRGSSSGTRRPGSRGSDSRRPVSRGSGVNAAGDGTIREGMLVVNGVDLLSSRSDQNRREHHTDEYEYDELIVRRGQPFHMLLLLSRTYESSDRITLELLIGNNPEVGKGTHVIIPVGKGGSGGWKAQVVKASGQNLNLRVHTSPNAIIGKFQFTVRTQSDAGEFQLPFDPRNEIYILFNPWCPEDIVYVDHEDWRQEYVLNESGRIYYGTEAQIGERTWNYGQFDHGVLDACLYILDRRGMPYGGRGDPVNVSRVISAMVNSLDDNGVLIGNWSGDYSRGTNPSAWVGSVEILLSYLRTGYSVPYGQCWVFAGVTTTVLRCLGLATRTVTNFNSAHDTDTSLTMDIYFDENMKPLEHLNHDSVWNFHVWNDCWMKRPDLPSGFDGWQVVDATPQETSSGIFCCGPCSVESIKNGLVYMKYDTPFIFAEVNSDKVYWQRQDDGSFKIVYVEEKAIGTLIVTKAISSNMREDITYLYKHPEGSDAERKAVETAAAHGSKPNVYANRGSAEDVAMQVEAQDAVMGQDLMVSVMLINHSSSRRTVKLHLYLSVTFYTGVSGTIFKETKKEVELAPGASDRVTMPVAYKEYRPHLVDQGAMLLNVSGHVKESGQVLAKQHTFRLRTPDLSLTLLGAAVVGQECEVQIVFKNPLPVTLTNVVFRLEGSGLQRPKILNVGDIGGNETVTLRQSFVPVRPGPRQLIASLDSPQLSQVHGVIQVDVAPAPGDGGFFSDAGGDSHLGETIPMASRGGA

These are yes or no findings as the source states them, for the method shown. Binding seen in cells or lysates may run through a third protein. A yes stands for co-enrichment or nearness to the bait. Other partners may have been found. For some of these results: Tags and fused reporters may be left off the sequences shown. One block for each molecule: values may come before it.
